According to article PMC7643154:
No constants are given. Whether binding was seen depends on the method and setting. Binding seen in cells or lysates may run through a third protein. Some binding calls cover weakened binding; strength is not graded here.

Protein sequences, listed by entry. Tags and fused reporters are not part of them.
UniProt P17679: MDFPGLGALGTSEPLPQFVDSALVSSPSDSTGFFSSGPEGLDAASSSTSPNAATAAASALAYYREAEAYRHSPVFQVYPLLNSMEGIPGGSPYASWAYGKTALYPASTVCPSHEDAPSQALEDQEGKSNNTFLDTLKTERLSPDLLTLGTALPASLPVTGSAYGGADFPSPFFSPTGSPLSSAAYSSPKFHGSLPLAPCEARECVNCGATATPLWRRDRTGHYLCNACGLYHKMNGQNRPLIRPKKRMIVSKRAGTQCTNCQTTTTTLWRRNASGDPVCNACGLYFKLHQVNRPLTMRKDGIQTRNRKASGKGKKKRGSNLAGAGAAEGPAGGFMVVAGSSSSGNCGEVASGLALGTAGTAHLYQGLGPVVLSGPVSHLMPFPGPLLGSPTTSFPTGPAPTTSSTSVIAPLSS
UniProt P15976: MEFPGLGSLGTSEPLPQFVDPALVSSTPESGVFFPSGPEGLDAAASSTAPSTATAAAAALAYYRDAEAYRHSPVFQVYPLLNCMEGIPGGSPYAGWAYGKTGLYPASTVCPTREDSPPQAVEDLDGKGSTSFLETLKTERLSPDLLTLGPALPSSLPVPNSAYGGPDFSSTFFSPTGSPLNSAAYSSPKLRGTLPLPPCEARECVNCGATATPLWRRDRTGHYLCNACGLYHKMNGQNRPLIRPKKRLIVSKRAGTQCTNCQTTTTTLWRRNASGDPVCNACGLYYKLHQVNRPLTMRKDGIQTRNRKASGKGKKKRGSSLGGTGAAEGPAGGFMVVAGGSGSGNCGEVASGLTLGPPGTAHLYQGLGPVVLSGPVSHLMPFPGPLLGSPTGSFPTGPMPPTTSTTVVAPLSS

Tests used:
[1] = target: GATA-1 (mouse, endogenous in primary bone marrow erythroid cells) (mouse (endogenous in primary mouse bone marrow erythroid cells)) (UniProt P17679); test: co-IP; GATA-1 precipitated with GATA-1 antibody on Dynabeads Protein A from primary mouse bone marrow erythroid cells, FOG-1 detected by western blotting; cells treated with 0, 0.1 or 0.5 uM AsIII for 24 h
[2] = target: GATA-1 (human, endogenous in K562 cells) (human (endogenous in K562)) (UniProt P15976); test: co-IP; GATA-1 precipitated with GATA-1 antibody on Dynabeads Protein A from K562 cells, FOG-1 detected by western blotting; cells treated with 0, 0.5, 1 or 2 uM AsIII for 48 h or with the zinc chelator TPEN

B1: friend of GATA-1 (FOG-1) (mouse, endogenous in primary bone marrow erythroid cells) (protein, UniProt O35615 1-995)
chain: MSRRKQSNPRQIKRSLRDMEAGEEAKAMDSSPKEQEAPDPEAPAIEEPPSPPREDVSPPAVPAPPESPEDPEDMEGQELEMRPQDEEKEEKEEEAAMASPWSGPEELELALQDGQRCVRARLSLTEGLSWGPFYGSIQTRALSPEREEPGPAVTLMVDESCWLRMLPQVLTEEAANSEIYRKDDALWCRVTKVVPSGGLLYVRLVTEPHGAPRHPVQEPVEPGGLAPVHTDIQLLPQQAGMASILATAVINKDVFPCKDCGIWYRSERNLQAHLLYYCASRQRAGSPVSATEEKPKETYPNERVCPFPQCRKSCPSASSLEIHMRSHSGERPFVCLICLSAFTTKANCERHLKVHTDTLSGVCHNCGFISTTRDILYSHLVTNHMVCQPGSKGEIYSPGAGHPAAKLPPDSLAGFQQHSLMHSPLVPADKAPTPSSGLDSKAEVTNGETRVPPQNGGSSESPAAPRTIKVEAAEEPEATRASGPGEPGPQAPSRTPSPHSPNPVRVKTELSSPTPGSSPGPGELTMAGTLFLPQYVFSPDAGTTTVPTAPQASEILAKMSELVHNRLQQGAGSSGAAGTPTGLFSGTKGATCFECEITFNNINNFYVHKRLYCSGRRAPEDPPTVRRPKAATGPARAPAGAAAEPDPSRSSPGPGPREEEASGTTTPEAEAAGRGSEGSQSPGSSVDDAEDDPSRTLCEACNIRFSRHETYTVHKRYYCASRHDPPPRRPPAPTTAPGPAAPALTAPPVRTRRRRKLYELPAAGAPPPAAGPAPVPVVPSPTAELPSSPRPGSASAGPAPALSPSPVPDGPIDLSKRPRRQSPDAPTALPALADYHECTACRVSFHSLEAYLAHKKYSCPAAPLRTTALCPYCPPNGRVRGDLVEHLRQAHGLQVAKPAASPGAEPRTPAERAPRDSPDGRAPRSPSPAPENTPSDPADQGARTPSKGPPAPAPAPGGGGGHRYCRLCNIRFSSLSTFIAHKKYYCSSHAAEHVK
binding [1]: binds

B2: friend of GATA-1 (FOG-1) (human, endogenous in K562 cells) (protein, UniProt Q8IX07 1-1006)
chain: MSRRKQSNPRQIKRSLGDMEAREEVQLVGASHMEQKATAPEAPSPPSADVNSPPPLPPPTSPGGPKELEGQEPEPRPTEEEPGSPWSGPDELEPVVQDGQRRIRARLSLATGLSWGPFHGSVQTRASSPRQAEPSPALTLLLVDEACWLRTLPQALTEAEANTEIHRKDDALWCRVTKPVPAGGLLSVLLTAEPHSTPGHPVKKEPAEPTCPAPAHDLQLLPQQAGMASILATAVINKDVFPCKDCGIWYRSERNLQAHLLYYCASRQGTGSPAAAATDEKPKETYPNERVCPFPQCRKSCPSASSLEIHMRSHSGERPFVCLICLSAFTTKANCERHLKVHTDTLSGVCHSCGFISTTRDILYSHLVTNHMVCQPGSKGEIYSPGAGHPATKLPPDSLGSFQQQHTALQGPLASADLGLAPTPSPGLDRKALAEATNGEARAEPLAQNGGSSEPPAAPRSIKVEAVEEPEAAPILGPGEPGPQAPSRTPSPRSPAPARVKAELSSPTPGSSPVPGELGLAGALFLPQYVFGPDAAPPASEILAKMSELVHSRLQQGAGAGAGGAQTGLFPGAPKGATCFECEITFSNVNNYYVHKRLYCSGRRAPEDAPAARRPKAPPGPARAPPGQPAEPDAPRSSPGPGAREEGAGGAATPEDGAGGRGSEGSQSPGSSVDDAEDDPSRTLCEACNIRFSRHETYTVHKRYYCASRHDPPPRRPAAPPGPPGPAAPPAPSPAAPVRTRRRRKLYELHAAGAPPPPPPGHAPAPESPRPGSGSGSGPGLAPARSPGPAADGPIDLSKKPRRPLPGAPAPALADYHECTACRVSFHSLEAYLAHKKYSCPAAPPPGALGLPAAACPYCPPNGPVRGDLLEHFRLAHGLLLGAPLAGPGVEARTPADRGPSPAPAPAASPQPGSRGPRDGLGPEPQEPPPGPPPSPAAAPEAVPPPPAPPSYSDKGVQTPSKGTPAPLPNGNHRYCRLCNIKFSSLSTFIAHKKYYCSSHAAEHVK
binding [2]: binds
